Data published in ChEMBL document CHEMBL4138122, “Azaphenothiazines - promising phenothiazine derivatives. An insight into nomenclature, synthesis, structure elucidation and biological properties” (Eur J Med Chem, 2017).

Tested on: HepG2
Test: cells
Conditions: Homo sapiens, HepG2, 72 h

COc1cccc2c1C(=O)c1c(O)c3c(c(O)c1C2=O)C[C@@](O)(C(=O)CO)C[C@@H]3O[C@H]1C[C@H](N)[C@H](O)[C@H](C)O1 [DOXORUBICIN]
IC50: 5 µM
